# In the supplement of paper PMC3682954:
# Structures can show the parent of a compound that is named as a salt. ± gives the standard deviation of the averaged measurements. This is one part of the list. Many values rest on one well or one pass, so single values are uncertain.
# Test system: RAW 264.7
# Assay: HMGB1-induced TNF-alpha production relative to HMGB1-stimulated control; higher = more TNF-alpha secretion (less inhibition)
# Details: stimulus: HMGB1 5 ug/ml, 18 h
# [1] = compound concentration: 1 ug/ml
SMILES,HMGB1-induced TNF-alpha production (compound concentration: 3 uM) [%],HMGB1-induced TNF-alpha production [1] [%]
CC(=O)OC1CN2CCC1CC2 (stereo not given),108,–
"CC1C2Cc3ccc(O)cc3C1(C)CCN2CC1CC1 (single isomer, unassigned; (+)) [(+)-Cyclazocine]",77.9,–
CN1C[C@H](C(=O)N[C@]2(C)O[C@@]3(O)[C@@H]4CCCN4C(=O)[C@H](Cc4ccccc4)N3C2=O)C[C@@H]2c3cccc4[nH]cc(c34)C[C@H]21,86.8,–
CN1C[C@H](C(=O)N[C@]2(C)O[C@@]3(O)[C@@H]4CCCN4C(=O)[C@H](Cc4ccccc4)N3C2=O)C[C@@H]2c3cccc4[nH]cc(c34)C[C@H]21 [Dihydroergotamine methanesulfonate],71.1,–
CN1C[C@H](C(=O)N[C@]2(C)O[C@@]3(O)[C@@H]4CCCN4C(=O)[C@H](Cc4ccccc4)N3C2=O)C[C@@H]2c3cccc4[nH]cc(c34)C[C@H]21 [Dihydroergotamine mesylate],–,89.2
CN1C[C@H](C(=O)N[C@]2(C)O[C@@]3(O)[C@@H]4CCCN4C(=O)[C@H](Cc4ccccc4)N3C2=O)C[C@@H]2c3cccc4[nH]cc(c34)C[C@H]21 [Dihydroergotamine tartrate],62,–
CN1C[C@H](C(=O)N[C@]2(C)O[C@@]3(O)[C@@H]4CCCN4C(=O)[C@H](Cc4ccccc4)N3C2=O)C[C@@H]2c3cccc4[nH]cc(c34)C[C@H]21 [Dihydroergotamine],111,–
O=C1NCN(c2ccccc2)C12CCN(CC1COc3ccccc3O1)CC2 (stereo not given) [Spiroxatrine],107.7 ± 0.61,–
C[N+]1(C)[C@@H]2CC[C@H]1C[C@@H](OC(=O)C(CO)c1ccccc1)C2 (stereo not given in full) [Methylatropine nitrate],112,–
C[N+]1(C)[C@@H]2CC[C@H]1C[C@@H](OC(=O)C(CO)c1ccccc1)C2 (stereo not given in full) [Atropine methyl nitrate],97.8,–
C[N+]1(C)[C@@H]2CC[C@H]1C[C@@H](OC(=O)C(CO)c1ccccc1)C2 (stereo not given in full) [Atropine methyl bromide],93,–
C[N+]1(C)[C@@H]2CC[C@H]1C[C@@H](OC(=O)C(CO)c1ccccc1)C2 (stereo not given in full),90.2,–
c1ccc2nc(N3CCNCC3)ccc2c1,76.7,–
c1ccc2nc(N3CCNCC3)ccc2c1 [Quipazine dimaleate salt],121,–
C[N+](C)(C)CCCCCCCCCC[N+](C)(C)C [Decamethonium bromide],86.5,–
C[N+](C)(C)CCCCCCCCCC[N+](C)(C)C [Decamethonium dibromide],81.4,–
C[N+](C)(C)CCCCCCCCCC[N+](C)(C)C,90.4,–
C[N+](C)(C)CCCCCCCCCC[N+](C)(C)C [Decamethonium],108,–
COc1ccc2[nH]c3c(c2c1)CCN=C3C [Methoxy-6-harmalan],92.9,–
NCCc1c[nH]c2c(OCc3ccccc3)cccc12 [7-Benzyloxytryptamine],–,66.7
CN1CCC(c2c[nH]c3ccc(O)cc23)CC1,86.1,–
CC(C)[C@@]1(NC(=O)[C@@H]2C[C@@H]3c4cccc5[nH]cc(c45)C[C@H]3N(C)C2)O[C@@]2(O)[C@@H]3CCCN3C(=O)[C@H](Cc3ccccc3)N2C1=O [Dihydroergocristine],74.7,–
O=C1C=C2C=C[C@@H]3C[C@@]2(O1)[C@H]1CCCCN31 [Securinine],–,55.3
O=C1C=C2C=C[C@@H]3C[C@@]2(O1)[C@H]1CCCCN31,79.7,–

SMILES,HMGB1-induced TNF-alpha production (compound concentration: 3 uM) [%],HMGB1-induced TNF-alpha production [1] [%]
C/C=C1/CN2CC[C@]34C(=C(C=O)[C@H]1C[C@H]23)Nc1ccccc14,–,73.1
CC(N)Cc1c[nH]c2ccc(OCc3cccs3)cc12 (stereo not given),98.4,–
CCCC(C)C1(CC)C(=O)NC(=S)NC1=O (stereo not given),96.5,–
COc1cc([C@@H]2c3cc4c(cc3[C@H](O)[C@H]3COC(=O)[C@@H]23)OCO4)cc(OC)c1OC,119,–
CN1CCC(c2ccc(F)cc2)C(COc2ccc3c(c2)OCO3)C1 (stereo not given),108,–
CCN[C@@H](C)Cc1cccc(C(F)(F)F)c1 [Dexfenfluramine hydrochloride],103,–
Oc1noc2c1CCNC2,80.5,–
C[C@]12CCC(=O)C[C@@H]1CC[C@@H]1[C@@H]2CC[C@@]2(C)[C@H]1CC[C@]2(C)O [Mestanolone],114,–
NC(=O)CN1CC(O)CC1=O (stereo not given) [Oxiracetam],97.7,–
COc1ccc(CNC(=O)/C=C/c2ccc3[nH]cc(CCN(C)C)c3c2)cc1,84.3,–
C[CH2][Hg][S]c1ccccc1C(=O)[O-].[Na+] [Thimerosal],31.7,–
C[CH2][Hg][S]c1ccccc1C(=O)[O-].[Na+],1.85 ± 5.8,–
C[N+](C)(C)CC#CCN1CCCC1=O [Oxotremorine methiodide],101,–
NC(=O)c1ccc(OCC(O)CN2CC=C(c3ccc(F)cc3)CC2)cc1 (stereo not given),103,–
CC(C)=CC1C(C(=O)OCc2cccc(Oc3ccccc3)c2)C1(C)C (stereo not given),73.9,–
Cc1ncc2n1-c1ccc(Cl)cc1C(c1ccccc1F)=NC2,101,–
CN(C)Cc1c[nH]c2ccccc12 [Gramine],–,62.3
C[N+]1(C)CCOC(O)(c2ccc(-c3ccc(C4(O)C[N+](C)(C)CCO4)cc3)cc2)C1 (stereo not given) [Hemicholinium-3],75,–
C[N+]1(C)CCOC(O)(c2ccc(-c3ccc(C4(O)C[N+](C)(C)CCO4)cc3)cc2)C1 (stereo not given) [Hemicholinium bromide],86.5,–
Nc1ccncc1,113,–
Nc1ccncc1 [4-Aminopyridine],87.3,–
C[C@]12CCC(=O)C=C1CC[C@@H]1[C@@H]2C(=O)C[C@]2(C)C(=O)CC[C@@H]12 [Adrenosterone],115,–
COc1cc2c(cc1OC)-c1c(OC)c(OC)c(CO)c3c1C(C2)N(C)CC3 (stereo not given),–,67.7
CC[C@H](C)[C@H]1O[C@]2(C=C[C@@H]1C)C[C@@H]1C[C@@H](C/C=C(\C)[C@@H](O[C@H]3C[C@H](OC)[C@@H](O[C@H]4C[C@H](OC)[C@@H](O)[C@H](C)O4)[C@H](C)O3)[C@@H](C)/C=C/C=C3\CO[C@@H]4[C@H](O)C(C)=C[C@@H](C(=O)O1)[C@]34O)O2.CO[C@H]1C[C@H](O[C@H]2[C@H](C)O[C@@H](O[C@@H]3/C(C)=C/C[C@@H]4C[C@@H](C[C@]5(C=C[C@H](C)[C@@H](C(C)C)O5)O4)OC(=O)[C@@H]4C=C(C)[C@@H](O)[C@H]5OC/C(=C\C=C\[C@@H]3C)[C@]54O)C[C@@H]2OC)O[C@@H](C)[C@@H]1O,84.7,–

# Part of the list above, tab-delimited.
SMILES	HMGB1-induced TNF-alpha production (compound concentration: 3 uM) [%]	HMGB1-induced TNF-alpha production [1] [%]
COc1ccc(CNC(=O)/C=C/c2ccc3[nH]cc(CCN(C)C)c3c2)cc1	84.3	–
C[CH2][Hg][S]c1ccccc1C(=O)[O-].[Na+]	1.85 ± 5.8	–
C[N+]1(C)CCOC(O)(c2ccc(-c3ccc(C4(O)C[N+](C)(C)CCO4)cc3)cc2)C1 (stereo not given) [Hemicholinium bromide]	86.5	–

# The listing continues.

SMILES,HMGB1-induced TNF-alpha production (compound concentration: 3 uM) [%],HMGB1-induced TNF-alpha production [1] [%]
CC[C@H](C)[C@H]1O[C@]2(C=C[C@@H]1C)C[C@@H]1C[C@@H](C/C=C(\C)[C@@H](O[C@H]3C[C@H](OC)[C@@H](O[C@H]4C[C@H](OC)[C@@H](O)[C@H](C)O4)[C@H](C)O3)[C@@H](C)/C=C/C=C3\CO[C@@H]4[C@H](O)C(C)=C[C@@H](C(=O)O1)[C@]34O)O2.CO[C@H]1C[C@H](O[C@H]2[C@H](C)O[C@@H](O[C@@H]3/C(C)=C/C[C@@H]4C[C@@H](C[C@]5(C=C[C@H](C)[C@@H](C(C)C)O5)O4)OC(=O)[C@@H]4C=C(C)[C@@H](O)[C@H]5OC/C(=C\C=C\[C@@H]3C)[C@]54O)C[C@@H]2OC)O[C@@H](C)[C@@H]1O [Abamectin],89.9,–
CO[C@H]1CC=C2CCN3CCC4=C(CC(=O)OC4)[C@]23C1 [Dihydro-beta-erythroidine hydrobromide],97.9,–
Cc1[nH]c2ccc(O)cc2c1CCN [2-Methyl-5-hydroxytryptamine maleate],122,–
C=CCN1CCc2cccc3c2[C@H]1Cc1ccc(O)c(O)c1-3 [R(-)-N-Allylnorapomorphine hydrobromide],96.2,–
COc1ccc(C(=O)N2CCCC2=O)cc1 [Aniracetam],107 ± 15,–
COc1ccc(C(=O)N2CCCC2=O)cc1,89.9,–
CCCCCCCCCCCCCC(=O)O[C@@H]1[C@@H](C)[C@@]2(O)[C@@H](C=C(CO)C[C@]3(O)C(=O)C(C)=C[C@@H]23)[C@@H]2C(C)(C)[C@]12OC(C)=O,89.3,–
CCCCCCCCCCCCCC(=O)O[C@@H]1[C@@H](C)[C@@]2(O)[C@@H](C=C(CO)C[C@]3(O)C(=O)C(C)=C[C@@H]23)[C@@H]2C(C)(C)[C@]12OC(C)=O [Phorbol 12-myristate 13-acetate],119,–
O=C1/C(=C/c2ccccc2)C[C@@]2(O)[C@H]3Cc4ccc(O)c5c4[C@@]2(CCN3CC2CC2)[C@H]1O5 [BNTX maleate salt hydrate],49.6,–
CC[C@@]1(O)C[C@H](O)c2c(cc3c(c2O)C(=O)c2c(O)ccc(O)c2C3=O)[C@H]1C(=O)OC,70.8,–
O=C(O)CCCc1ccc(N(CCCl)CCCl)cc1 [Chlorambucil],103 ± 21,–
O=C(O)CCCc1ccc(N(CCCl)CCCl)cc1,97.4 ± 5.9,–
CC[C@@H](C(N)=O)N1CCCC1=O,91.9,–
CC[C@@H](C(N)=O)N1CCCC1=O [Levetiracetam],105 ± 20,–
NCC(O)c1cc(O)c(O)cc1F (stereo not given) [6-Fluoronorepinephrine hydrochloride],80.8,–
"CC(C)(C)[C@]1(O)CC2OC(=O)CC23C(=O)OC2OC(=O)[C@H](O)C231 (single isomer, unassigned; (-)) [(-)-Bilobalide]",–,75.9
CCS(=O)(=O)Nc1cccc(C(=C2CCCCC2)c2cnc[nH]2)c1,88.6,–
CCCN1CCc2cccc3c2[C@H]1Cc1ccc(O)c(O)c1-3 [R(-)-Propylnorapomorphine hydrochloride],74.1,–
Cc1nccc2c1[nH]c1ccccc12 [Harmane hydrochloride],108,–
Cc1nccc2c1[nH]c1ccccc12 [Harman],–,72.3
C[C@H]1O[C@@H](C[N+](C)(C)C)CS1,87.1,–
CNc1ccc2oc(C[C@H]3O[C@@]4(CC[C@H]3C)O[C@H]([C@H](C)C(=O)c3ccc[nH]3)[C@H](C)C[C@H]4C)nc2c1C(=O)O [Calcimycin],327,–
